Source: patent publication US6875569B2, “Modified lepidopteran receptors and hybrid multifunctional proteins for use in transcription and regulation of transgene expression” (The Salk Institute for Biological Studies, priority 1997, dated 2005)
At least one compound was matched to its structure with a doubt left.

Protein sequences, listed by entry. Tags and fused reporters are not part of them.
UniProt P04483, whole entry, added parts left off: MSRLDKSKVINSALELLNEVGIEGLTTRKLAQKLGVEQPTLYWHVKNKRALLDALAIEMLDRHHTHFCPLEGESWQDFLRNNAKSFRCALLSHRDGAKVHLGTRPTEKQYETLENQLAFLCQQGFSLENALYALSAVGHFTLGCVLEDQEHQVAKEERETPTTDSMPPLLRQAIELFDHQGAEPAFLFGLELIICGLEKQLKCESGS

Assays:
Format in all cases: cell-based
Settings in all cases: FIG. 2D
[1] = test system: TTMT (TTA-VbR fusion protein); assay: TetO-Luc reporter co-transfected with TTMT
[2] = test system: TTMT-2V (TTMT with two VP16 t-domains); assay: TetO-Luc reporter co-transfected with TTMT-2V
[3] = target: T1, tet-transactivator (TTA) (Escherichia coli, UniProt P04483); assay: TetO-Luc reporter co-transfected with LINX
T1 construct: expressed in transfected cells; host or cells: CV-1 cells

C[C@H]1c2cccc(O)c2C(=O)C2=C(O)[C@]3(O)C(=O)C(C(N)=O)=C(O)[C@@H](N(C)C)[C@@H]3[C@@H](O)[C@@H]21 [Doxycycline]
TTMT stimulation of TetO-luc promoter/reporter [1]: efficiently blocked | TTMT-2V stimulation of TetO-luc promoter/reporter [2]: efficiently blocked | constitutive activity of TTA on TetO-Luc [3]: block constitutive activity
